The list is a part of this screen's results and no random one: it is rich in T/C values a quarter to a half above the control, in often repeated tests (any T/C) and in doses without a T/C. Other doses and runs of a compound stand elsewhere. T/C is the treated group as % of the vehicle group. Some doses have a count of surviving animals in place of a T/C: the source files T/C as zero there, which appears to mark a toxic dose or a test without result, not a measured value. Some survivor counts are full or nearly so, which does not show that the dose was tolerated: survival well below the control is almost never listed, so the zero probably covers shortened survival too. Counts of survivors are from the toxicity check (mostly the fifth day) where no day follows; animals may have died later. Schedule codes are those of the source, read here as Q, the interval in days (D) or hours (H), X, the number of doses. Brackets with × give the number of equal values in this list. Where survival is the endpoint, the PubChem record calls one and a half times the control and up active, and a quarter to a half above the control has no call in these data; cut-offs in other NCI protocols can differ. Some entries hold several experiments; the values are given in rising order. Some T/C values are followed by the survivors on the day toxicity was checked, most often the fifth; where none is given, no animal had died by that day.
Test system: P388 leukemia ip, CD2F1 mice, survival T/C
Assay: NCI In Vivo Anticancer Drug Screen. Data for tumor model P388 Leukemia (intraperitoneal) in CD2F1 (CDF1) mice
Settings: T/C endpoint: median survival time, higher T/C = longer survival
[1] = dose: 100.0 mg/kg/injection, schedule: Q01DX009 (ip), vehicle: saline with Tween-80

In the case of `CC1(C)N=C(N)N=C(N)N1c1ccc(CCCCc2ccc(S(=O)(=O)F)cc2Cl)c(Cl)c1`, the T/C (dose: 1.0 mg/kg/injection, schedule: Q03HX016 (ip), vehicle: other) is reported as 126 % of control, the T/C (dose: 1.98 mg/kg/injection, schedule: Q01DX009 (ip), vehicle: other) is reported as 133 % of control and the T/C (dose: 2.0 mg/kg/injection, schedule: Q03HX016 (ip), vehicle: other) is reported as 139 % of control [9 of 10 alive]. For the same compound, the T/C (dose: 2.82 mg/kg/injection, schedule: Q01DX009 (ip), vehicle: other) was 133 % of control, the T/C (dose: 4.0 mg/kg/injection, schedule: Q03HX016 (ip), vehicle: other) was 143 % of control and the T/C (dose: 4.03 mg/kg/injection, schedule: Q01DX009 (ip), vehicle: other) was 135 % of control. For the same compound, the T/C (dose: 5.18 mg/kg/injection, schedule: Q01DX005 (ip), vehicle: Klucel (hydroxypropylcellulose) (HPC)) was 135 % of control, the T/C (dose: 5.76 mg/kg/injection, schedule: Q01DX009 (ip), vehicle: other) was 141 % of control and the T/C (dose: 6.25 mg/kg/injection, schedule: Q01DX009 (ip), vehicle: saline with Tween-80) was 137 and 142 % of control. The T/C (dose: 6.48 mg/kg/injection, schedule: Q01DX009 (ip), vehicle: Klucel (hydroxypropylcellulose) (HPC)) was 148 % of control, the T/C (dose: 8.0 mg/kg/injection, schedule: Q03HX016 (ip), vehicle: other) was 149 % of control and the T/C (dose: 8.23 mg/kg/injection, schedule: Q01DX009 (ip), vehicle: other) was 142 % of control. For the same compound, the T/C (dose: 11.76 mg/kg/injection, schedule: Q01DX009 (ip), vehicle: other) was 139 % of control [9 of 10 alive], the T/C (dose: 12.5 mg/kg/injection, schedule: Q01DX009 (ip), vehicle: saline with Tween-80) was 146, 163 (2×), 174 % of control and the T/C (dose: 14.4 mg/kg/injection, schedule: Q01DX005 (ip), vehicle: Klucel (hydroxypropylcellulose) (HPC)) was 145 % of control. The survivor count (dose: 16.0 mg/kg/injection, schedule: Q03HX016 (ip), vehicle: other) was 7 of 10, the T/C (dose: 18.0 mg/kg/injection, schedule: Q01DX009 (ip), vehicle: saline with Tween-80, evaluated on day 30) was 165, 171, 172 % of control (2×) and the T/C (dose: 18.0 mg/kg/injection, schedule: Q01DX009 (ip), vehicle: saline with Tween-80, evaluated on day 45) was 156 and 191 % of control. For the same compound, the survivor count (dose: 24.0 mg/kg/injection, schedule: Q01DX009 (ip), vehicle: other) was 7 of 10, the T/C (dose: 25.0 mg/kg/injection, schedule: Q01DX009 (ip), vehicle: saline with Tween-80) was 130, 155, 168, 194 % of control and the T/C (dose: 27.0 mg/kg/injection, schedule: Q01DX009 (ip), vehicle: saline with Tween-80, evaluated on day 30) was 161, 174, 176, 180, 185, 195, 218 % of control. The T/C (dose: 27.0 mg/kg/injection, schedule: Q01DX009 (ip), vehicle: saline with Tween-80, evaluated on day 45) was 153, 166, 181, 194 % of control, the T/C (dose: 27.0 mg/kg/injection, schedule: Q01DX009 (ip), vehicle: saline with Tween-80, evaluated on day 60) was 174 % of control and the survivor count (dose: 32.0 mg/kg/injection, schedule: Q01DX005 (ip), vehicle: other) was 0 of 10. The T/C (dose: 40.0 mg/kg/injection, schedule: Q01DX009 (ip), vehicle: saline with Tween-80, evaluated on day 30) was 162, 172, 173, 177, 186, 188, 191 % of control, the T/C (dose: 40.0 mg/kg/injection, schedule: Q01DX009 (ip), vehicle: saline with Tween-80, evaluated on day 45) was 156, 178, 190, 194 % of control and the T/C (dose: 40.0 mg/kg/injection, schedule: Q01DX009 (ip), vehicle: saline with Tween-80, evaluated on day 60) was 211 % of control. For the same compound, the T/C (dose: 50.0 mg/kg/injection, schedule: Q01DX009 (ip), vehicle: Klucel (hydroxypropylcellulose) (HPC)) was 127 % of control, the survivor count (dose: 50.0 mg/kg/injection, schedule: Q01DX009 (ip), vehicle: distilled water + Tween-80) was 4 of 5 and the T/C (dose: 50.0 mg/kg/injection, schedule: Q01DX009 (ip), vehicle: saline with Tween-80) was 93, 99, 108, 190 % of control. The T/C (dose: 60.0 mg/kg/injection, schedule: Q01DX009 (ip), vehicle: saline with Tween-80, evaluated on day 30) was 180, 189 (2×), 192, 200 (2×), 206 % of control, the T/C (dose: 60.0 mg/kg/injection, schedule: Q01DX009 (ip), vehicle: saline with Tween-80, evaluated on day 45) was 111, 173, 177, 179, 190, 209 % of control and the T/C (dose: 60.0 mg/kg/injection, schedule: Q01DX009 (ip), vehicle: saline with Tween-80, evaluated on day 60) was 194 % of control. The survivor count (dose: 64.0 mg/kg/injection, schedule: Q04DX002 (ip), vehicle: other) was 4 of 10, the T/C (dose: 75.0 mg/kg/injection, schedule: Q01DX009 (ip), vehicle: saline with Tween-80) was 144 % of control and the T/C (dose: 90.0 mg/kg/injection, schedule: Q01DX009 (ip), vehicle: saline with Tween-80, evaluated on day 30) was 161, 194, 204, 210 (2×), 217, 240 % of control. For the same compound, the T/C (dose: 90.0 mg/kg/injection, schedule: Q01DX009 (ip), vehicle: saline with Tween-80, evaluated on day 45) was 125, 159, 185, 186, 192, 205 % of control, the T/C (dose: 90.0 mg/kg/injection, schedule: Q01DX009 (ip), vehicle: saline with Tween-80, evaluated on day 60) was 206 % of control and the survivor count (dose: 100.0 mg/kg/injection, schedule: Q01DX009 (ip), vehicle: distilled water + Tween-80) was 0 of 5. The T/C [1] was 136 % of control, the survivor count [1] was 6 of 6 (2×) and the T/C (dose: 130.0 mg/kg/injection, schedule: Q01DX009 (ip), vehicle: saline with Tween-80, evaluated on day 30) was 128 and 186 % of control. The T/C (dose: 130.0 mg/kg/injection, schedule: Q01DX009 (ip), vehicle: saline with Tween-80, evaluated on day 45) was 100 and 211 % of control, the T/C (dose: 130.0 mg/kg/injection, schedule: Q01DX009 (ip), vehicle: saline with Tween-80, evaluated on day 60) was 252 % of control and the survivor count (dose: 300.0 mg/kg/injection, schedule: Q04DX003 (ip), vehicle: saline with Tween-80) was 5 of 6. For the same compound, the survivor count (dose: 450.0 mg/kg/injection, schedule: Q04DX003 (ip), vehicle: saline with Tween-80) was 5 of 6.
In the case of `Cc1coc2c3c(ccc12)OC(C)(C)C=C3`, the survivor count (dose: 400.0 mg/kg/injection, schedule: Q01DX001 (ip), vehicle: saline with Tween-80) is reported as 6 of 6.

— PubChem BioAssay AID330 (DTP/NCI, 2004)
